In the assay the target is T1, Flag-UBE2O (full length, expressed in cells) (human) (UniProt Q9C0C9).
T1 sequence: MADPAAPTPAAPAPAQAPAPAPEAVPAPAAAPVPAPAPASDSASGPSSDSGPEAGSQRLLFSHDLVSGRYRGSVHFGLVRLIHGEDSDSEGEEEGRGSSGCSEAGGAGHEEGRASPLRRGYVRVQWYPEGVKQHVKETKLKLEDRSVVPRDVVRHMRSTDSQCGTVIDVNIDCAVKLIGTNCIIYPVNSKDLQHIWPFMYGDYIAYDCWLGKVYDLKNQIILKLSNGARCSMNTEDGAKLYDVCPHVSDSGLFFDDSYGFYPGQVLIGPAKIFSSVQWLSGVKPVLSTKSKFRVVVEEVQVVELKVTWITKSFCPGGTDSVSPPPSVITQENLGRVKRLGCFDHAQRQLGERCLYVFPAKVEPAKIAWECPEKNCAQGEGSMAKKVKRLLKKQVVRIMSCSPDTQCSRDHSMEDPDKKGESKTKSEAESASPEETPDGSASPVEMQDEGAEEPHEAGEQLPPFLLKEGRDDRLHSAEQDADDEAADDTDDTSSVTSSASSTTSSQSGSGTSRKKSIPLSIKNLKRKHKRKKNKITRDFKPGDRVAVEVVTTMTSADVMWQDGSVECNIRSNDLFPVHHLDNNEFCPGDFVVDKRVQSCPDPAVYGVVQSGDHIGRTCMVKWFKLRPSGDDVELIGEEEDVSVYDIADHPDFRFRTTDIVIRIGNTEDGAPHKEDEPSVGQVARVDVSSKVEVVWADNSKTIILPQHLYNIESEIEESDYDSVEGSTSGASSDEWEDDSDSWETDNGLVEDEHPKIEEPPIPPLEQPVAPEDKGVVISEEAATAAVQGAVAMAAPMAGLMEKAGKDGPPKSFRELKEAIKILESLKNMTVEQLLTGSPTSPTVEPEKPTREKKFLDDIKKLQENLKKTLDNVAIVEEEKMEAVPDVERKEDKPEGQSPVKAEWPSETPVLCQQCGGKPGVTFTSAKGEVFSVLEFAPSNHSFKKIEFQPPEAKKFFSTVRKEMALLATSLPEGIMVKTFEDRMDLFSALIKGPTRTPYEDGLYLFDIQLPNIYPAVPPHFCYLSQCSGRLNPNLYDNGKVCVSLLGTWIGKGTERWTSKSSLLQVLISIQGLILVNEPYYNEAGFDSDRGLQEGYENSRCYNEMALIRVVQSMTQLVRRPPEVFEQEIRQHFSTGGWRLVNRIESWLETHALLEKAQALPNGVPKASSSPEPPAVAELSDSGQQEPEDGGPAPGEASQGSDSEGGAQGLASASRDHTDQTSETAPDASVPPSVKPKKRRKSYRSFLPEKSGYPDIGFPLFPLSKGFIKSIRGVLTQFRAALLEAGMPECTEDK
Kind of assay: co-IP; co-expression of tagged full-length or truncated proteins in transfected cells (36 h), anti-Flag M2 affinity gel 90 min at 4 °C, immunoblot. For orientation: In western blotting, separated proteins are transferred to a membrane and probed.

Results are given in words; binding and its absence hold for the method and conditions named. Binding seen in cells or lysates may run through a third protein. Binding can be weak; no strength is given. Sequences can lack the tags named with a protein.

For the substance “Myc-CTNNA1 N-terminal (N) domain (mouse) (domain or fragment)”, the binding result is on record as “binds”.
In the case of “Myc-CTNNA1 C-terminal domain (mouse) (domain or fragment)”, the binding entry is “binds”.

The values above are taken from publication PMC12635394, “UBE2O-mediated ubiquitylation directs cytoplasmic CTNNA1 to promote cell-to-ECM adhesions” (EMBO Reports, 2025).
